Reference: article PMC10248797
Where a chain is given by its changes, count along the chain named. Names and notes keep the numbering of the source. These are yes or no findings as the source states them, for the method shown. Some entries that bind do so weakly or less than the wild type. Where a sequence is shown, tags or fusion partners need not be part of it.

Experiments:
[1] = target: T1, Halo-Lis1 (UniProt P43034); assay: pull-down; 50 nM Halo-Lis1 on HaloTag beads; 5 nM dynein with 100 nM WT Ndel1 without HaloTag; depletion of dynein from solution; both purified
T1 sequence: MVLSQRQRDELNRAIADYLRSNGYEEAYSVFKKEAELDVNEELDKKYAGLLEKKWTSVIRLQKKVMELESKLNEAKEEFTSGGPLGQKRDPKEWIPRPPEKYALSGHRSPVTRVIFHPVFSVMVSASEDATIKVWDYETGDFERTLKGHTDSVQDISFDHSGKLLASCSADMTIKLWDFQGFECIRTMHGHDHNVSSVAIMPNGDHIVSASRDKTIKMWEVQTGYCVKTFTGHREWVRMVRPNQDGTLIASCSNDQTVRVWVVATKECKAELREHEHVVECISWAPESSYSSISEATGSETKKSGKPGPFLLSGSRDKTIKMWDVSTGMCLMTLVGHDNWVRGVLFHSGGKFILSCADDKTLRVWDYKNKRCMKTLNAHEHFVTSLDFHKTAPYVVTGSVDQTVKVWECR

[2] = target: T1, Halo-Lis1; assay: pull-down; 50 nM Halo-Lis1 on HaloTag beads; 5 nM dynein with 100 nM E48A Ndel1; depletion of dynein from solution; both purified
[3] = target: T2, Halo-tagged full-length Ndel1 with C-terminal 6X-His tag (UniProt Q9GZM8); assay: pull-down; as a2 but at 36 mM KCl; data not shown; both purified
T2 sequence: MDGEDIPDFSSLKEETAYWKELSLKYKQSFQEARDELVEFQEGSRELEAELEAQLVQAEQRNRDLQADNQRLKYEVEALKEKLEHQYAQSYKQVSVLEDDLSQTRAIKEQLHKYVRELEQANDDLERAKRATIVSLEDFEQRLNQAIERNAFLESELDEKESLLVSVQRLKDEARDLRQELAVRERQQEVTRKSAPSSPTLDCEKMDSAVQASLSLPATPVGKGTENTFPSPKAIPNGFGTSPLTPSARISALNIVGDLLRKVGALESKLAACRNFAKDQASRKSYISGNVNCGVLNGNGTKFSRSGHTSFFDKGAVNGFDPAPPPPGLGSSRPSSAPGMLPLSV

B1: tagless FL-Ndel1 (i.e., no HaloTag) (protein, UniProt Q9GZM8 1-345)
chain: T2 sequence
binding [1]: binds

B2: FL-Ndel1^E48A without HaloTag (protein, UniProt Q9GZM8 1-345)
chain: T2 sequence with E48A
binding [2]: binds

B3: Lis1 (in solution) (protein, UniProt P43034 1-410)
chain: T1 sequence
binding [3]: binds
